Laboratory results published in publication PMC4351204, “Amyloid Precursor Protein Mediated Changes in Intestinal Epithelial Phenotype In Vitro” (PLoS ONE, 2015).
No constants are given. Whether binding was seen depends on the method and setting. Binding seen in cells or lysates may run through a third protein.

By UniProt entry, the sequences of proteins in these tests, tags left out. Residues count along the entry.
UniProt P05067, residues 18-770: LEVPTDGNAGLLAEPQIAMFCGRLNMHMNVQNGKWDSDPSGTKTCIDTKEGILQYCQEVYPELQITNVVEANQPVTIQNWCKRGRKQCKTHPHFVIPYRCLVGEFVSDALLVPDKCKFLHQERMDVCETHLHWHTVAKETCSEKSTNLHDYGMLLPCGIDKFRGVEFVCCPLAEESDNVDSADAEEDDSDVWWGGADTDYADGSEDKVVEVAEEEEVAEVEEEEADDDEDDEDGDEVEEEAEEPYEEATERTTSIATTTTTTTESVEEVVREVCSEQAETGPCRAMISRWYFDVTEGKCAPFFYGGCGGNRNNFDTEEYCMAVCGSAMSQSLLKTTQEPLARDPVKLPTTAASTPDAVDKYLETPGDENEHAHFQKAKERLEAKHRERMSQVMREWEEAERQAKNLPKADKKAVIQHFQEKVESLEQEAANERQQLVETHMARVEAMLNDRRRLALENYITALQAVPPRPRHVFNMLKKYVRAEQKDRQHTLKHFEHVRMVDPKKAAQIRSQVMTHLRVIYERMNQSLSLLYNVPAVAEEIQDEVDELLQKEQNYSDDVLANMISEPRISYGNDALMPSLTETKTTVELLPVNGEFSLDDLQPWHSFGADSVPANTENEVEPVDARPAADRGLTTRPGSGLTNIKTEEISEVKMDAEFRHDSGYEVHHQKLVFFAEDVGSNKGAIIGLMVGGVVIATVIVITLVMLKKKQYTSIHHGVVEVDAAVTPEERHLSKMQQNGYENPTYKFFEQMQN
UniProt Q6P1M0: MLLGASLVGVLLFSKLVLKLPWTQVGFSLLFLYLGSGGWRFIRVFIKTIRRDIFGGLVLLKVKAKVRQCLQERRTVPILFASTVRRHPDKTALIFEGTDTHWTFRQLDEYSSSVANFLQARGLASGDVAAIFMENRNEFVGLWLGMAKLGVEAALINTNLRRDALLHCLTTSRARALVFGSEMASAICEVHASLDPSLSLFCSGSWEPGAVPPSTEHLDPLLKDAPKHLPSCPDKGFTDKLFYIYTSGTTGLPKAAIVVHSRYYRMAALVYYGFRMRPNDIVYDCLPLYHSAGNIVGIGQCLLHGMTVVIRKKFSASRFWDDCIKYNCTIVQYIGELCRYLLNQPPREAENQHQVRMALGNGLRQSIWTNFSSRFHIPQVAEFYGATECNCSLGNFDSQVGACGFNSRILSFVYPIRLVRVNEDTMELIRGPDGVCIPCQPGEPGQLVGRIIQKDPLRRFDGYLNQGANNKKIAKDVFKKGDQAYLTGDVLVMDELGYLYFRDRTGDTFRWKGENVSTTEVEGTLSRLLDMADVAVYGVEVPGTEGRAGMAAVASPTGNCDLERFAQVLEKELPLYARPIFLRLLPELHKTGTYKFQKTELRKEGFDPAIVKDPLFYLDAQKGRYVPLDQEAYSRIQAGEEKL

Molecular target: amyloid precursor protein (human (endogenous in Caco-2)) (UniProt P05067)
Assay: co-IP; Caco-2 cells, media alone or stimulated 10 min with 1 ug/mL IgG1, 22C11 (APP agonist antibody) or SMΦ (CD36 agonist antibody); lysed in 1% Triton X-100 buffer (20mM Tris pH 7.4, 150mM NaCl); anti-APP antibody overnight at 4°C, protein A/G agarose 2 h at 4°C, washed three times; western blot with anti-APP (Y188), CD36 or FATP4 antibodies

binding: no binding
Substance: fatty acid transport protein, FATP4 (from UniProt Q6P1M0 1-643)
